Source: publication PMC11905051
Results are given in words; binding and its absence hold for the method and conditions named. Binding seen in cells or lysates may run through a third protein. Here binding means that the protein was enriched with, or labelled near, the bait; the list need not be complete.

The chains behind the UniProt entries cited, without tags or fusion partners.
UniProt Q96FV2: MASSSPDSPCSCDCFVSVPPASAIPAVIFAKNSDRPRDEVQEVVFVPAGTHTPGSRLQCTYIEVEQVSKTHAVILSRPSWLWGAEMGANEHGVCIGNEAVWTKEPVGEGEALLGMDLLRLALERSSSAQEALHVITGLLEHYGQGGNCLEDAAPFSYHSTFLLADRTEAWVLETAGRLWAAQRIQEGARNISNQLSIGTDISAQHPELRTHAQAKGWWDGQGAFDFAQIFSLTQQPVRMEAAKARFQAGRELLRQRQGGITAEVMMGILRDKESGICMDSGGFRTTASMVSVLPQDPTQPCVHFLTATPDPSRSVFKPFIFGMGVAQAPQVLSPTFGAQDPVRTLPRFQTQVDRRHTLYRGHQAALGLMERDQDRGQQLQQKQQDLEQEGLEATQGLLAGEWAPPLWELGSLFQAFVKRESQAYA
UniProt P11142: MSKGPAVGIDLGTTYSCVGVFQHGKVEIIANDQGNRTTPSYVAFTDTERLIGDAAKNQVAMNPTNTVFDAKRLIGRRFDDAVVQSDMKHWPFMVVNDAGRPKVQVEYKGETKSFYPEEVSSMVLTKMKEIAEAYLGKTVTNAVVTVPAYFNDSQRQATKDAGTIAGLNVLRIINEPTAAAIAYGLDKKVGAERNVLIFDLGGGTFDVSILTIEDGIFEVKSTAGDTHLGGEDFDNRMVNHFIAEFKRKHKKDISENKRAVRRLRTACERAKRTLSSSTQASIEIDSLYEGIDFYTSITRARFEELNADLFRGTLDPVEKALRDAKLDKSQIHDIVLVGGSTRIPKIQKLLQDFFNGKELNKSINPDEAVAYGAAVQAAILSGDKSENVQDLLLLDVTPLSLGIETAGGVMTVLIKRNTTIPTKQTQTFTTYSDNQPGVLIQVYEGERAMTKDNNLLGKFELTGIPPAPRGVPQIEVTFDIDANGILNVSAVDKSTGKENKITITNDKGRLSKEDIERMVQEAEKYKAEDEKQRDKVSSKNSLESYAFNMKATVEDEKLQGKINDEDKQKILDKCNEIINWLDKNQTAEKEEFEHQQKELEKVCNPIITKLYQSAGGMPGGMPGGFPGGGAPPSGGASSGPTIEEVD
UniProt O95816: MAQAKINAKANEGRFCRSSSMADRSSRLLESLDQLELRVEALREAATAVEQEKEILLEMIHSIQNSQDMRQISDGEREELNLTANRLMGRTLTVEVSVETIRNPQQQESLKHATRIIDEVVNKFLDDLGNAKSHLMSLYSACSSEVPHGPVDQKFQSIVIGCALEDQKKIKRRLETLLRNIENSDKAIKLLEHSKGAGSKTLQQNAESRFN

Molecular target: HA-SCRN2 (secernin-2) (human) (UniProt Q96FV2)
Assay: affinity purification with mass spectrometry; HEK293T cells stably expressing pLVX or HA-SCRN2, NP-40 lysis buffer, IP, Coomassie-stained gel, LC-MS/MS; hits with more than 2 unique peptides

Row | Substance | binding
1 | HSPA8 (heat shock protein family A member 8) (from UniProt P11142 1-646) | binds
2 | BAG family molecular chaperone regulator 2 (BAG2) (from UniProt O95816 1-211) | binds
